PubChem BioAssay AID652259 – Drosophila RNAi Screening Center – 2013

- Test: 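Knock-downs that push a Wingless-driven reporter up or down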 (primary screen)
- Cells: Drosophila clone 8 imaginal disc epithelial cells
- Reagent: long dsRNA against Drosophila genes
- Challenge: pathway stimulated by co-transfected Wingless expression plasmid
- Measured: 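Firefly luciferase from a tcf-site Wingless reporter, measured alongside co-transfected Renilla luciferase that tracks transfection; pathway stimulated by a Wingless plasmid; the firefly-to-Renilla ratio is not deposited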
- Scale: firefly reporter light: higher = more Wg reporter light, before normalisation; Renilla control light: higher = more transfected or surviving cells
- Hit rule: 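Strong candidates differ from their plate mean by at least two out of four per-plate statistical tests; weak candidates meet just one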
- Meaning of the calls: active = candidate regulator (raises or lowers reporter); inactive = not a candidate
In all, the deposit lists about 22,000 reagents; below is an unselected part of those with a known target gene and a result. In the full data, 233 (1.1%) are marked active. 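Light values are raw, unnormalised plate reads; the ratio scores behind the reporter calls were not deposited.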 Not stated in the record: the amount of reagent, the time to read-out, the dose of the treatment.

The first 9 records, to show the layout:
Target gene	amplicon	firefly reporter light, replicate 1	firefly reporter light, replicate 2	Renilla control light, replicate 1	Renilla control light, replicate 2	Call
Gbp2	DRSC06069	17725		3656		inactive
CG18273	DRSC18150	15570		12509		inactive
CG18273	DRSC18505	3442	9515	1526	3001	inactive
Gr59e	DRSC04276	2625	6146	598	2211	inactive
Spn28Db	DRSC22033	4.53e5	4.92e5	1.63e5	1.91e5	inactive
lncRNA:CR41601	DRSC22158	4.90e5	5.16e5	1.86e5	1.76e5	inactive
CG15043	DRSC19619	20492		7556		inactive
CG13488	DRSC04133	2098	5900	732	3389	inactive
Hr83	DRSC12521	14138		3852		inactive

The list itself, repeating the preview:
Target gene	amplicon	firefly reporter light, replicate 1	firefly reporter light, replicate 2	Renilla control light, replicate 1	Renilla control light, replicate 2	Call
Gbp2	DRSC06069	17725		3656		inactive
CG18273	DRSC18150	15570		12509		inactive
CG18273	DRSC18505	3442	9515	1526	3001	inactive
Gr59e	DRSC04276	2625	6146	598	2211	inactive
Spn28Db	DRSC22033	4.53e5	4.92e5	1.63e5	1.91e5	inactive
lncRNA:CR41601	DRSC22158	4.90e5	5.16e5	1.86e5	1.76e5	inactive
CG15043	DRSC19619	20492		7556		inactive
CG13488	DRSC04133	2098	5900	732	3389	inactive
Hr83	DRSC12521	14138		3852		inactive
Or92a	DRSC16771	11890		2497		inactive
CG14564	DRSC11725	22866		6631		inactive
CG14564	DRSC22388	8.79e5	8.48e5	4.11e5	5.36e5	inactive
a	DRSC04667	2897	5273	262	584	inactive
a	DRSC04668	1965	6026	441	2304	inactive
CG8910	DRSC07414	4186		1664		inactive
CG13285	DRSC09960	2150	6963	1808	4668	inactive
CG5773	DRSC06955	5905		1959		inactive
CG14427	DRSC17921	14755		13016		inactive
CG42445	DRSC10858	9212		2560		inactive
CG11674	DRSC19414	1584	7482	954	2579	inactive
CG5160	DRSC02821	2394	6657	800	2615	inactive
brat	DRSC03497	8953		2000		inactive
CG31550	DRSC12197	12049		3289		inactive
CG31550	DRSC12198	6912		2779		inactive
tsl	DRSC17090	33040		5431		inactive
twe	DRSC03628	5701		2368		inactive
CROT	DRSC14518	2278	2338	1062	1040	inactive
CROT	DRSC14519	6901		2375		inactive
sle	DRSC14557	4530		1685		inactive
Gdap1	DRSC10437	1510	7161	961	2384	inactive
mRpS35	DRSC08551	7067		1953		inactive
Acp1	DRSC01854	3939	4784	1234	2556	inactive
mthl14	DRSC07865	2618		1321		inactive
Iyd	DRSC10614	7223		2765		inactive
Iyd	DRSC10615	7048		3417		inactive
Mst36Fa	DRSC21564	8.08e5	7.32e5	3.85e5	3.62e5	inactive
CG9068	DRSC07329	5472		2800		inactive
Decay	DRSC16930	19132		5176		inactive
CG15022	DRSC08476	1225	8119	1143	3601	inactive
CG10939	DRSC06019	14149		1750		inactive
CG10939	DRSC21734	3.76e5	4.49e5	1.93e5	1.57e5	inactive
Cep97	DRSC00637	16360		4825		inactive
Ice2	DRSC14268	1872	5808	1107	1756	inactive
mirr	DRSC11369	5362		1808		inactive
lncRNA:CR33218	DRSC22944	6.59e5	5.81e5	3.19e5	2.65e5	inactive
orion	DRSC18213	12224		9024		inactive
orion	DRSC18214	21768		9504		inactive
CG17129	DRSC08508	11975		4552		inactive
Fit1	DRSC08450	8500		1718		inactive
Gr28a	DRSC02290	2220	5449	653	2141	inactive
PTP-ER	DRSC04636	8314		2167		inactive
CG30279 (retired record)	DRSC22417	9.14e5	8.56e5	4.22e5	1.48e5	inactive
CG13531	DRSC04173	2745	7162	728	2380	inactive
CG2260	DRSC18223	2089	4263	1072	1208	inactive
CG34447	DRSC00741	2647	5905	1440	2896	inactive
CG14630	DRSC18166	17595		12649		inactive
CG14630	DRSC18653	11851		12662		inactive
Patj	DRSC08712	15280		3586		inactive
tara	DRSC17076	22160		4380		inactive
Alp13	DRSC15781	17705		4438		inactive
CG11911	DRSC00331	6141		3033		inactive
gig	DRSC11351	3899		2135		inactive
CG5002	DRSC06911	14227		5194		inactive
hob	DRSC08426	6007		1856		inactive
CG5397	DRSC00683	7459		4215		inactive
CG34159	DRSC02885	2119	6423	485	1684	inactive
Asator	DRSC17136	17849		13462		inactive
CG42841	DRSC07962	2091		1148		inactive
LpR2	DRSC13726	5228		2004		inactive
LpR2	DRSC13728	3096		1452		inactive
LpR2	DRSC15655	2626	3545	872	1514	inactive
LpR2	DRSC15658	20272		8708		inactive
l(1)G0020	DRSC18198	27158		13176		inactive
